Data as given in article PMC11637825.
Results are given in words; binding and its absence hold for the method and conditions named. Binding seen in cells or lysates may run through a third protein. Some results given as binding are weak or reduced against the parent protein; the word gives no strength.

Chains of the proteins cited; added tags and fusions are not shown.
UniProt Q14186: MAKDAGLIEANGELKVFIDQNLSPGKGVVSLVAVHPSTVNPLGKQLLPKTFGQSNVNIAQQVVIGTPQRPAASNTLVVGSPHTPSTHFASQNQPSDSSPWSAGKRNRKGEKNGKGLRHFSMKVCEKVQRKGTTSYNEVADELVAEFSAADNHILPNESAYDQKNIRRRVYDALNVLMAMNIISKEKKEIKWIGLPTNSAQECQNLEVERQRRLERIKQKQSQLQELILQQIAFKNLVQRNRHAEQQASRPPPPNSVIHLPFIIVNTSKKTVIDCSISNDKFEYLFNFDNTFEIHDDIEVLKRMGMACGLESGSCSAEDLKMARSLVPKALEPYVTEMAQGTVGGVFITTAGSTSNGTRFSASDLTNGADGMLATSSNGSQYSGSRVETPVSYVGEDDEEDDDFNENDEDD

Target: T1, cytoskeleton associated protein (CKAP) 2 (human (endogenous in HCT116 and SW480)) (UniProt Q8WWK9)
T1 sequence: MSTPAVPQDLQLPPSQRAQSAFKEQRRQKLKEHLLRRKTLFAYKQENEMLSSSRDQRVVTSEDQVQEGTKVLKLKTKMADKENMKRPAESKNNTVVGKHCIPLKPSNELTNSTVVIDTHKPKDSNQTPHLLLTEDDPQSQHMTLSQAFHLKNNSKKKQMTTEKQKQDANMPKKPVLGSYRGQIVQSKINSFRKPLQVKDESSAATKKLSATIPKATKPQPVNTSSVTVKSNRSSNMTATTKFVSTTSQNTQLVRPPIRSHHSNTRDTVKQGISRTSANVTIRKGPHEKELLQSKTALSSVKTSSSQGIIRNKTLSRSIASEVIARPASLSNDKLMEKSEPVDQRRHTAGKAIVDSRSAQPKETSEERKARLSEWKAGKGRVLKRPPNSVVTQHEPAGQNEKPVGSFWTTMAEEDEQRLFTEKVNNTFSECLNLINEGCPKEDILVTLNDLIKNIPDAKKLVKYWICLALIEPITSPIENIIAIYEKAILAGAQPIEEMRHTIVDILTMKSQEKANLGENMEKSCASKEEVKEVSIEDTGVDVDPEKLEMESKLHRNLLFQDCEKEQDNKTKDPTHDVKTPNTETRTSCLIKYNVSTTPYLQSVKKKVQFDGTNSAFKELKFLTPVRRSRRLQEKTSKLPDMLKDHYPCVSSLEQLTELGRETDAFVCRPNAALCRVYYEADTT
Experiment: co-IP; HCT116 and SW480 cells lysed in RIPA buffer (50 mM Tris pH 7.4, 150 mM NaCl, 1 mM EDTA, 1% Triton X-100, 10% glycerol); supernatants immunoprecipitated with anti-CKAP2 antibody (ab85889), magnetic protein A/G beads, 4°C, 2 h

TFDP1 (from UniProt Q14186 1-410)
binding: binds
